Data source: PubChem BioAssay AID1259425 (University of Nebraska Medical Center, 2018)

Assay: 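Seek colon cancer weak points whose silencing resembles KSR1 loss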 (primary screen)
Cells: HCT116 human colon cancer cells
Knock-down reagent: siRNA pool against human genes, 50 nM siRNA
Measurement: 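After 50 nM siRNA pool, branched-DNA assay measures six marker transcripts per well, minus blank, normalised to the geometric mean of two housekeeping transcripts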
Reading the numbers: BNIP3L mRNA: higher = more BNIP3L transcript after knockdown; NDRG1 mRNA: higher = more NDRG1 transcript after knockdown; BNIP3 mRNA: higher = more BNIP3 transcript after knockdown; ALDOC mRNA: higher = more ALDOC transcript after knockdown; ACSL5 mRNA: higher = more ACSL5 transcript after knockdown
In all, the deposit lists about 14,000 reagents; this is a random part of them. Not given: the time to read-out.

gene | PubChem SID | BNIP3L mRNA, set 1 | NDRG1 mRNA, set 1 | BNIP3 mRNA, set 1 | ALDOC mRNA, set 1 | ACSL5 mRNA, set 1
SNN | SID363994595 | 0.134 | 0.203 | 0.495 | 0.0207 | 0.255
PIAS1 | SID363999921 | 0.113 | 0.169 | 0.235 | 0.0329 | 0.248
DOCK10 | SID364005459 | 0.156 | 0.212 | 0.451 | 0.0196 | 0.223
ZNF229 | SID364005435 | 0.15 | 0.349 | 0.295 | 0.0244 | 0.418
MAP3K20 | SID364004540 | 0.0875 | 0.166 | 0.43 | 0.0087 | 0.149
CLASP1 | SID363999395 | 0.121 | 0.0739 | 0.279 | 0.00493 | 0.373
PLCH2 | SID364005439 | 0.0469 | 0.156 | 0.29 | 0.0144 | 0.0588
DISP3 | SID364005240 | 0.185 | 0.225 | 0.422 | 0.034 | 0.278
PLA2R1 | SID363998008 | 0.121 | 0.0925 | 0.32 | 0.0377 | 0.216
NOVA1 | SID363993687 | 0.0973 | 0.118 | 0.322 | 0.00914 | 0.207
ERCC2 | SID363991731 | 0.0645 | 0.147 | 0.245 | 0.0346 | 0.143
ACAT1 | SID363991358 | 0.142 | 0.178 | 0.471 | 0.0181 | 0.228
MAN1B1 | SID363997924 | 0.144 | 0.251 | 0.382 | 0.0102 | 0.173
NSDHL | SID363999724 | 0.0682 | 0.202 | 0.281 | 0.0325 | 0.187
DDHD1 | SID364003385 | 0.2 | 0.193 | 0.397 | 0.0742 | 0.282
BLTP3B | SID364005174 | 0.224 | 0.2 | 0.348 | 0.0325 | 0.339
TXNRD2 | SID363997250 | 0.0587 | 0.213 | 0.213 | 0.0242 | 0.173
S100A7 | SID363994114 | 0.135 | 0.193 | 0.28 | 0.0166 | 0.149
TRPM6 | SID364000429 | 0.104 | 0.0719 | 0.313 | 0.012 | 0.107
ZSCAN20 | SID364004653 | 0.0985 | 0.592 | 0.263 | 0.0501 | 0.218
PARM1 | SID363999464 | 0.159 | 0.0791 | 0.274 | 0.014 | 0.136
CASP10 | SID363992515 | 0.134 | 0.658 | 0.297 | 0.0368 | 0.16

Look-ups from the entries so far.
For “BNIP3L mRNA, set 1”, PIAS1 [SID363999921] has 0.113
Entry for MAN1B1 [SID363997924] under “NDRG1 mRNA, set 1”: 0.251
PLCH2 [SID364005439], NDRG1 mRNA, set 1 = 0.156

Additional records follow:
gene | PubChem SID | BNIP3L mRNA, set 1 | NDRG1 mRNA, set 1 | BNIP3 mRNA, set 1 | ALDOC mRNA, set 1 | ACSL5 mRNA, set 1
TAAR2 | SID363998995 | 0.144 | 0.0972 | 0.399 | 0.0315 | 0.226
SRBD1 | SID364000764 | 0.195 | 0.205 | 0.477 | 0.0593 | 0.13
TLR8 | SID364000234 | 0.0841 | 0.12 | 0.254 | 0.0174 | 0.15
STK35 | SID364004505 | 0.194 | 0.105 | 0.542 | 0.0242 | 0.232
RASSF7 | SID363994574 | 0.123 | 0.282 | 0.261 | 0.0198 | 0.132
KDELR1 | SID363997567 | 0.195 | 0.207 | 0.351 | 0.0444 | 0.192
SNAI2 | SID363994213 | 0.0608 | 0.0767 | 0.353 | 0.0132 | 0.258
SKA3 | SID364004644 | 0.16 | 0.289 | 0.313 | 0.0558 | 0.269
CUL7 | SID363999100 | 0.136 | 0.407 | 0.411 | 0.0423 | 0.166
ENTPD3 | SID363992533 | 0.0821 | 0.121 | 0.234 | 0.0333 | 0.137
PTPRU | SID363996590 | 0.0585 | 0.2 | 0.262 | 0.00783 | 0.149
FANCM | SID364005204 | 0.122 | 0.161 | 0.399 | 0.0329 | 0.11
CCKBR | SID364004886 | 0.0561 | 0.0932 | 0.242 | 0.0203 | 0.127
MTX2 | SID363997346 | 0.0365 | 0.0471 | 0.29 | 0.00825 | 0.0583
GLRX3 | SID363997334 | 0.0599 | 0.129 | 0.405 | 0.0549 | 0.116
R3HDM2 | SID363999200 | 0.0286 | 0.104 | 0.223 | 0.0123 | 0.176
TOP3B | SID363994990 | 0.157 | 0.38 | 0.342 | 0.0492 | 0.31
INSL5 | SID363996380 | 0.0503 | 0.142 | 0.157 | 0.0164 | 0.131
TUBGCP4 | SID363998859 | 0.0962 | 0.484 | 0.306 | 0.0239 | 0.322
CEP70 | SID364002821 | 0.183 | 0.24 | 0.295 | 0.0576 | 0.143
SEPTIN2 | SID363995387 | 0.17 | 0.318 | 0.307 | 0.0566 | 0.193
PTPN14 | SID363996310 | 0.0489 | 0.101 | 0.311 | 0.0169 | 0.145
TXNDC15 | SID364002999 | 0.174 | 0.192 | 0.391 | 0.0504 | 0.391
DYNC2I1 | SID364000739 | 0.123 | 0.231 | 0.392 | 0.0176 | 0.196
PPP4R4 | SID364001913 | 0.139 | 0.223 | 0.435 | 0.0102 | 0.0705
ABCB11 | SID363994809 | 0.129 | 0.388 | 0.406 | 0.0543 | 0.216
DAO | SID363993130 | 0.179 | 0.125 | 0.329 | 0.0276 | 0.168
INHBA | SID363993393 | 0.108 | 0.102 | 0.309 | 0.0347 | 0.103
